Assay results

Data taken from PubChem BioAssay AID912, deposited by NCATS (2007).

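Uptake of anthrax lethal toxin into cultured cells, read by FRET (460/530 nm ratio) and reported from the 460 nm channel; the cell line is not named here.
Each compound was tested as a concentration series from about 0.0005 to 40 µM.
The number is the fitted AC50 of the 460 nm signal alone; lower values mean a more potent effect. A falling signal goes with compounds filed as inhibitors or cytotoxic, a rising one with activators or fluorescent compounds (inferred from the filed classes).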

Values are in µM.
Common to all entries: measured here: 460 nm channel.
Part of the compounds only, not a random draw; the main read-out is not listed here.
Potencies fitted to partial, single-point or poorly fitting curves are rough.
The first word of each remark tells which way the curve ran; it can be opposite to the aim of the assay.

compound	AC50 (µM)	remark
COc1ccc(Oc2ncc3nc(-c4cccs4)c(=O)n(C)c3n2)cc1	10	rising, partial curve
N#Cc1nc(COc2ccccc2)oc1N1CCC(Cc2ccccc2)CC1	5.012	falling, partial curve
C=CCNC(=O)CC(C)C(CCCCC)C(=O)O (stereo not shown)	0.003981	falling, full curve, poor fit
N#CCCn1c(=O)c(CCc2ccccc2)nc2cnc(Oc3cccc(Cl)c3)nc21	7.943	falling, single point
Cc1ccc(NC(=O)CN2CCCCCC2)c(Br)c1	1.995	falling, full curve
COc1ccc(NC(=O)c2nnn(Cc3ccc(SC)cc3)c2N)c(OC)c1	10	falling, partial curve, poor fit
CCOC(=O)C1SC2(C(F)(F)F)CC1(O)c1c(C)cc(C)nc1O2 (stereo not shown)	0.5012	falling, full curve, poor fit
CCOC(=O)c1ccccc1NC(=O)Cn1c(-c2nonc2N)nc2ccccc21	5.012	falling, partial curve
O=C(O)CC(NS(=O)(=O)c1ccc(Br)cc1)c1ccco1 (stereo not shown)	0.005012	falling, full curve, poor fit
CC1=C(O)C(=O)[C@H]2O[C@@H]2C1=O	19.95	rising, partial curve
COC(=O)C1=C(C)N(C)C(C)=C(C(=O)OC)C1c1ccc(F)c(Br)c1	19.95	falling, single point
C=C(C)CC1(c2ccccc2)Oc2ccccc2-c2nc3cc(Cl)c(Cl)cc3nc21 (stereo not shown)	1.995	rising, partial curve
CCc1nc(SCC(=O)Nc2cccc(C(F)(F)F)c2)c2c(=O)n(C)c(=O)n(C)c2n1	6.31	rising, single point
Cc1cc(C)c(S(=O)(=O)Nc2cccc(C(F)(F)F)c2)c(C)c1	25.12	falling, partial curve
O=C(NCCO[N+](=O)[O-])c1cccnc1	12.59	falling, partial curve
CN(C)c1ccc(NC(=O)CSc2nc3c(c(=O)[nH]2)CCCC3)cc1	0.001585	rising, full curve, poor fit
CCN(CC)Cc1cc(Nc2ccnc3cc(Cl)ccc23)ccc1O	10	falling, partial curve
O=C(O)CC1SC(=Nc2ccccc2)N(c2ccccc2)C1=O (stereo not shown)	1.995	falling, full curve, poor fit
Cn1cc(SCC(=O)Nc2nc3ccccc3s2)c2ccccc21	5.012	falling, partial curve, poor fit
O=C(c1ccncc1)N(Cc1ccccc1)Cc1nc2ccccc2c(=O)[nH]1	3.981	rising, single point
O=C(COc1ccc(Br)cc1CO)Nc1ccccc1F	10	falling, partial curve
CC(C)(C)Nc1ncnc2c1cnn2-c1ccccc1	25.12	falling, partial curve
COc1ccccc1N(CC(=O)Nc1ccc(F)c(F)c1)S(C)(=O)=O	5.012	falling, partial curve
Cc1cc(C)c2c(n1)nn1c(NCCN3CCOCC3)cc(C)nc21	0.1585	rising, full curve, poor fit
Cn1nnnc1SCc1c(F)cccc1F	0.3981	falling, partial curve, poor fit
OC[C@@H]1O[C@@H](n2cnc3c(Nc4ccccc4)ncnc32)[C@@H](O)[C@H]1O	31.62	falling, single point
OC(CN1C2=NCCN2c2ccccc21)c1ccc2c(c1)OCO2 (stereo not shown)	3.981	falling, partial curve, poor fit
CCOc1ccc(-c2cc(NC(=O)Cn3ncc4c3-c3ccccc3OC4)on2)cc1OCC	10	falling, single point
CN1CCN(c2ncc3nc(CCc4ccccc4)c(=O)n(C4CC4)c3n2)CC1	3.162	rising, full curve
O=C(Nc1ccc(-c2cn3ccsc3n2)cc1)C1COc2ccccc2O1 (stereo not shown)	31.62	falling, single point
CC(=O)N(C(C)=O)c1c(C#N)c(C)n(-c2ccccc2)c1C(=O)c1ccccc1	0.3981	rising, single point
Cn1nc(CC(=O)Nc2ncc(Br)s2)c2ccccc2c1=O	0.05012	falling, full curve, poor fit
CCOc1ccc(C2C(C#N)=C(N)Oc3cc(C)n(Cc4ccco4)c(=O)c32)cc1OC (stereo not shown)	12.59	rising, single point
COc1ccc2[nH]cc(CCNc3ncncc3-c3ccc(C(=O)N(C)C)cc3)c2c1	15.85	rising, single point
C=CCn1c(COc2ccccc2)nnc1SCC(=O)C(C)(C)C	25.12	rising, partial curve, poor fit
O=C(O)CSc1ccc([N+](=O)[O-])cc1[N+](=O)[O-]	0.7943	falling, single point
O=c1c(-c2ccc(F)cc2)nc2cnc(N3CCNCC3)nc2n1Cc1ccc(F)cc1	3.162	rising, full curve
COC(=O)CC(=O)CSc1nc2c(cc1C#N)CCC2	5.012	rising, single point
C1=CN2CCC1C(c1ccccc1)C2 (stereo not shown)	3.162	rising, single point
Cc1noc(C)c1C(=O)N1CCC2(CCCN(Cc3nccs3)C2)CC1	31.62	rising, single point
CCCn1c(SCC(=O)NC(=O)NCc2ccco2)n[nH]c1=O	1.995	rising, full curve
C/C(CCN1CCc2nc(-c3ccccc3)c(-c3ccccc3)cc2C1)=N\O[C@@H](C)CN1CCCCc2nc(C)c(C)cc21	5.012	rising, partial curve
CCN1CCN(Cc2ccc(NC(=O)Nc3ccccc3)cc2)CC1	6.31	falling, partial curve, poor fit
Cc1ccnc(NC(=O)CCC2COc3ccccc3O2)c1 (stereo not shown)	12.59	rising, single point
COC(=O)c1ccc(OC(=O)c2nn(C)cc2Cl)c(OC)c1	0.1	falling, full curve, poor fit
CCc1cc2c(nc1CC)CCN(CC/C(C)=N/O[C@@H](C)CN1CCCCc3nc(C)c(C)cc31)C2	5.012	falling, single point
CCOC(=O)CSc1nc2c(sc(=S)n2CCc2ccccc2)c(=O)n1Cc1ccco1	0.03162	rising, full curve
CCOC(=O)c1cc2oc(C(c3nnnn3C3CCCCC3)N3CCOCC3)cc2[nH]1 (stereo not shown)	12.59	falling, partial curve
O=C(c1csnn1)N1CCC[C@@]2(CCN(C(c3ccccc3)c3ccccc3)C2)C1	3.981	rising, single point
COc1ccc(CSc2nnc(N)s2)cc1F	3.162	rising, single point
C=C(Cl)CSC(=S)N(CC)CC	31.62	falling, single point
CN1CCN(C(=S)c2ccc(N(C)C)cc2)CC1	0.003981	falling, full curve, poor fit
Nn1cc(-c2ccccc2)nc1SCC(=O)N1CCN(S(=O)(=O)c2ccccc2)CC1	6.31	rising, partial curve
O=S(=O)(c1ccccc1)N1CCC2(CCCN(c3ccccc3)C2)CC1	12.59	falling, single point
CC(OCc1ccccc1)C(NC(=O)OC(C)(C)C)C(=O)NCC1CCCO1 (stereo not shown)	5.012	rising, partial curve
Cc1ccccc1CS(=O)(=O)CCC(=O)NCCCN1CCOCC1	0.631	rising, full curve, poor fit
Cc1ccc(NC(=O)C2CCCN2S(=O)(=O)c2ccc(F)cc2)c(C)c1 (stereo not shown)	0.1995	rising, full curve
O=C(OCC(COC(=O)c1ccccc1)(COC(=O)c1ccccc1)COC(=O)c1ccccc1)c1ccccc1	2.512	falling, full curve
COc1ccc(OCc2nc(C#N)c(N3CCN(c4ccc(OC)cc4)CC3)o2)cc1	15.85	falling, partial curve

The last 5 entries again:

{"compound": "CC(OCc1ccccc1)C(NC(=O)OC(C)(C)C)C(=O)NCC1CCCO1", "stereo": "stereo not shown", "AC50 (µM)": "5.012", "remark": "rising, partial curve"}
{"compound": "Cc1ccccc1CS(=O)(=O)CCC(=O)NCCCN1CCOCC1", "AC50 (µM)": "0.631", "remark": "rising, full curve, poor fit"}
{"compound": "Cc1ccc(NC(=O)C2CCCN2S(=O)(=O)c2ccc(F)cc2)c(C)c1", "stereo": "stereo not shown", "AC50 (µM)": "0.1995", "remark": "rising, full curve"}
{"compound": "O=C(OCC(COC(=O)c1ccccc1)(COC(=O)c1ccccc1)COC(=O)c1ccccc1)c1ccccc1", "AC50 (µM)": "2.512", "remark": "falling, full curve"}
{"compound": "COc1ccc(OCc2nc(C#N)c(N3CCN(c4ccc(OC)cc4)CC3)o2)cc1", "AC50 (µM)": "15.85", "remark": "falling, partial curve"}